Source: PubChem BioAssay AID2685 (National Center for Advancing Translational Sciences (NCATS), 2010)
Some of the results follow. These are further read-outs of the screen, such as a control signal, another cell line or another target. No call is given for them. The list favours compounds with an active or inconclusive main result. Potencies come from curve fits of mixed quality, noted in brackets.

Experiment: qHTS Assay for Lipid Storage Modulators in Drosophila S3 Cells;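 on cell number change: cells counted by Cell Tracker Red CMTPX staining in the red channel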
Details: BODIPY lipid droplet fluorescence, 18-24 h; for cell number change: measured here: cell count max response, cells fed with added oleic acid
Procedure, shortened: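 Drosophila S3 cells got compounds at several concentrations plus oleic acid (400 uM solution). Laser-scanning cytometry with 488 nm excitation read lipid droplets at 500-530 nm and cells at 575-640 nm. Percent activity was relative to 20 uM Triacsin C.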

[1] = measured here: lipid fluorescence (Fed channel) AC50, cells fed with added oleic acid
[2] = measured here: cell number channel AC50, cells fed with added oleic acid

Which cell number change does the source give for `Cc1ccc(NS(=O)(=O)N2CCOCC2)c(C)c1` here?
The cell number change was 4.46%.

What about the AC50 [1] of the same compound?
The AC50 was 6.51 µM [falling, single point].

Which results are given for `O=C(NC(=S)NC1CCCC1)c1ccccc1Br`?
cell number change: 19.1%; AC50 [1]: 14.6 µM [rising, single point]

For `CN(C)S(=O)(=O)N(CC(=O)N1CCOCC1)c1ccccc1`, which cell number change is on record?
Its cell number change is -30.3%.

And the AC50 [2]?
The AC50 was 6.51 µM [falling, full curve, poor fit].

What about the AC50 [1] of the same compound?
Its AC50 is 4.11 µM [falling, full curve].

Which results are given for `O=C1CCC(CCC(=O)N2CCCC(C(=O)c3cccc(C(F)(F)F)c3)C2)=NN1` (stereo not drawn)?
cell number change: -3.41%; AC50 [1]: 0.00517 µM [falling, full curve, poor fit]

Which cell number change does the source give for `Cc1ccc(C(=O)COC(=O)c2c(C)cc(=O)oc2C)cc1[N+](=O)[O-]` here?
Its cell number change is 1.57%.

What about the AC50 [1] of the same compound?
Its AC50 is 2.91 µM [rising, single point].

What does the source list for `CN1CC(=O)N(CC(=O)Nc2ccc(N(C)C)cc2)c2ccccc2C1=O`?
cell number change: 32.7%; AC50 [2]: 16.4 µM [rising, single point]

For `CCOC(=O)c1sc2ncn(/N=C/c3ccc(O)c(OC)c3)c(=O)c2c1C`, which cell number change is on record?
Its cell number change is -12.7%.

And the AC50 [1]?
Its AC50 is 1.16 µM [falling, single point].

With `CCOc1ccccc1NC(=O)N1CCN(S(C)(=O)=O)CC1` as the compound, how does the cell number change read?
Its cell number change is 24.7%.

What about the AC50 [1] of the same compound?
The AC50 was 29.1 µM [rising, single point].

For `CC(C)(C)c1ccc(OCCC(=O)OCC(=O)Nc2ccc(N3CCOCC3)cc2)cc1`, which cell number change is on record?
The cell number change was 9.24%.

What does the source list for `O=C(O)c1ccc(OS(=O)(=O)c2cccc(C(F)(F)F)c2)cc1`?
cell number change: 27.1%; AC50 [1]: 9.2 µM [rising, partial curve]

What does the source list for `Cc1ccc(CNC(=O)Cn2ccc(NC(=O)OCc3ccccc3)nc2=O)o1`?
cell number change: -15.3%; AC50 [2]: 4.11 µM [falling, partial curve, poor fit]; AC50 [1]: 6.51 µM [falling, partial curve, poor fit]

What does the source list for `COc1ccc2oc(C(=O)NCc3cc(OC)c(OC)cc3OC)c(C)c2c1`?
AC50 [2]: 0.00461 µM [rising, full curve, poor fit]; AC50 [1]: 1.16 µM [falling, single point]

With `CC(=O)Nc1ccc(NC(=O)Cn2c(=O)n(-c3ccccc3)c(=O)c3oc4ccccc4c32)cc1` as the compound, how does the AC50 [1] read?
Its AC50 is 6.51 µM [falling, single point].

For `COc1ccc(C2=NOC3(CC(=O)N(c4ccc(C)cc4)C3=O)C2)cc1` (stereo not drawn), which cell number change is on record?
The cell number change was 0.119%.

For `Cn1nc(NC(=O)C(F)(F)F)c2ncc(-c3ccc(Cl)cc3)nc21`, which cell number change is on record?
Its cell number change is 0.434%.

And the AC50 [1]?
Its AC50 is 0.0651 µM [rising, full curve, poor fit].

With `CCc1nc(Nc2cccc(O)c2)c2oc3ccccc3c2n1` as the compound, how does the cell number change read?
Its cell number change is -6.34%.

And the AC50 [1]?
Its AC50 is 0.58 µM [falling, single point].

Which results are given for `COc1ccc(C2(C(=O)NCCN3CCOCC3)CCOCC2)cc1`?
cell number change: -14.9%; AC50 [1]: 0.0206 µM [falling, full curve, poor fit]

For `COCCNC(=O)CN(c1cc(Cl)ccc1OC)S(=O)(=O)c1ccc(C)c([N+](=O)[O-])c1`, which cell number change is on record?
Its cell number change is -32.1%.

What about the AC50 [2] of the same compound?
Its AC50 is 29.1 µM [falling, single point].

And the AC50 [1]?
The AC50 was 29.1 µM [falling, single point].

Which cell number change does the source give for `COc1ccc(NC(=O)CN2C(=O)C(C)Oc3ccccc32)cc1` (stereo not drawn) here?
The cell number change was -37.7%.

What about the AC50 [2] of the same compound?
Its AC50 is 1.3 µM [falling, full curve, poor fit].

And the AC50 [1]?
The AC50 was 3.66 µM [rising, single point].

With `Oc1cccc(/C=N/N2CCN(C3c4ccccc4-c4ccccc43)CC2)c1` as the compound, how does the cell number change read?
Its cell number change is -38.6%.

And the AC50 [2]?
The AC50 was 29.1 µM [falling, single point].

With `CC(=O)Nc1ccc(S(=O)(=O)NCCSCc2ccccc2Cl)cc1` as the compound, how does the cell number change read?
Its cell number change is 11.9%.

What about the AC50 [1] of the same compound?
The AC50 was 4.61 µM [falling, single point].

For `O=C(NNC1=NCCC1)c1ccc(Br)cc1`, which cell number change is on record?
The cell number change was 26.7%.

And the AC50 [1]?
The AC50 was 0.58 µM [falling, single point].

Which results are given for `CCN(C(=O)CO/N=C/c1ccc(OC)cc1OC)c1c(N)n(Cc2ccccc2)c(=O)[nH]c1=O`?
cell number change: 30.2%; AC50 [2]: 0.206 µM [rising, full curve, poor fit]

For `CCOc1cc(Br)cc(C(c2c(C(=O)O)[nH]c3ccccc23)c2c(C(=O)O)[nH]c3ccccc23)c1O`, which cell number change is on record?
Its cell number change is -15.3%.

What about the AC50 [1] of the same compound?
The AC50 was 29.1 µM [falling, single point].

For `C=C[C@@H]1c2ccccc2N(S(=O)(=O)c2ccc(C)cc2)[C@H](c2ccccc2)C1(C#N)C#N`, which cell number change is on record?
The cell number change was 2.03%.

What about the AC50 [2] of the same compound?
The AC50 was 0.116 µM [falling, full curve, poor fit].

And the AC50 [1]?
Its AC50 is 7.31 µM [falling, partial curve, poor fit].

With `CCn1nnnc1NCc1cccc(Cl)c1` as the compound, how does the cell number change read?
The cell number change was 19.7%.

What about the AC50 [2] of the same compound?
The AC50 was 0.0461 µM [rising, partial curve].

What about the AC50 [1] of the same compound?
Its AC50 is 0.103 µM [rising, partial curve, poor fit].

What does the source list for `CCn1c(CCn2ccnc2C)n[nH]c1=S`?
cell number change: -17.4%; AC50 [1]: 18.4 µM [falling, partial curve]

For `CCc1nc(NCC2CCCO2)c(C#N)c2c1COC(C)(C)C2` (stereo not drawn), which cell number change is on record?
The cell number change was -19.8%.

What about the AC50 [1] of the same compound?
The AC50 was 9.2 µM [falling, partial curve, poor fit].

Which cell number change does the source give for `O=S(=O)(NCc1ccccc1Cl)c1cccs1` here?
The cell number change was 34.4%.

And the AC50 [2]?
The AC50 was 4.61 µM [rising, full curve].

What about the AC50 [1] of the same compound?
The AC50 was 29.1 µM [rising, single point].

For `COc1cccc(/C=N/NC(=S)NCCc2ccccc2)c1`, which cell number change is on record?
The cell number change was 16.2%.

Which cell number change does the source give for `COc1ccc(OCC(O)CN2C(=O)c3ccccc3S2(=O)=O)cc1` (stereo not drawn) here?
Its cell number change is -15.2%.

Which AC50 [1] does the source give for `COc1ccc(Cl)cc1S(=O)(=O)n1c([N+](=O)[O-])cnc1C` here?
Its AC50 is 29.1 µM [rising, single point].

Which AC50 [1] does the source give for `Cc1ccc2nsnc2c1NC(=O)c1ccc([N+](=O)[O-])o1` here?
The AC50 was 6.51 µM [falling, single point].

With `CC(C)c1ccc(NC(=S)NCc2cccs2)cc1` as the compound, how does the cell number change read?
Its cell number change is -20.8%.

And the AC50 [1]?
The AC50 was 0.461 µM [falling, full curve, poor fit].

With `O=C(Nc1ccc(Oc2cccnc2)cc1)C1CCCCN1Cc1ccc(CO)o1` (stereo not drawn) as the compound, how does the AC50 [1] read?
The AC50 was 6.31 µM [rising, full curve].

Which cell number change does the source give for `O/N=C(/CCc1ccccc1)C1(O)CCCCC1` here?
Its cell number change is 3.33%.

What about the AC50 [1] of the same compound?
Its AC50 is 18.4 µM [falling, single point].

For `CCOc1ccc(NC(=O)c2csc3c2CCCC3)cc1`, which cell number change is on record?
The cell number change was 26.4%.

What about the AC50 [1] of the same compound?
Its AC50 is 10.3 µM [rising, partial curve].
